The other results are listed elsewhere or left out. Small differences around the control level are noise.

The chains behind the UniProt entries cited, without tags or fusion partners. Where a name states a change or a piece, a line headed by the entry shows the natural chain unless it says otherwise.
UniProt Q7TPE5: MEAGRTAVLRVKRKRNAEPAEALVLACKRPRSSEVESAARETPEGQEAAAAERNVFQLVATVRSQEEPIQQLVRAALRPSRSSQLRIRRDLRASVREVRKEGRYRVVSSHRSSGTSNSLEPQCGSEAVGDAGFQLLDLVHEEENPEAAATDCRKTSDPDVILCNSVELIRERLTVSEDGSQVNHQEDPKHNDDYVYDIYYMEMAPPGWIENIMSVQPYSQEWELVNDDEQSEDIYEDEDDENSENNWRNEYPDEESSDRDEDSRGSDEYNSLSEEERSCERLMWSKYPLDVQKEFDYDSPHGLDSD
UniProt Q80TM6: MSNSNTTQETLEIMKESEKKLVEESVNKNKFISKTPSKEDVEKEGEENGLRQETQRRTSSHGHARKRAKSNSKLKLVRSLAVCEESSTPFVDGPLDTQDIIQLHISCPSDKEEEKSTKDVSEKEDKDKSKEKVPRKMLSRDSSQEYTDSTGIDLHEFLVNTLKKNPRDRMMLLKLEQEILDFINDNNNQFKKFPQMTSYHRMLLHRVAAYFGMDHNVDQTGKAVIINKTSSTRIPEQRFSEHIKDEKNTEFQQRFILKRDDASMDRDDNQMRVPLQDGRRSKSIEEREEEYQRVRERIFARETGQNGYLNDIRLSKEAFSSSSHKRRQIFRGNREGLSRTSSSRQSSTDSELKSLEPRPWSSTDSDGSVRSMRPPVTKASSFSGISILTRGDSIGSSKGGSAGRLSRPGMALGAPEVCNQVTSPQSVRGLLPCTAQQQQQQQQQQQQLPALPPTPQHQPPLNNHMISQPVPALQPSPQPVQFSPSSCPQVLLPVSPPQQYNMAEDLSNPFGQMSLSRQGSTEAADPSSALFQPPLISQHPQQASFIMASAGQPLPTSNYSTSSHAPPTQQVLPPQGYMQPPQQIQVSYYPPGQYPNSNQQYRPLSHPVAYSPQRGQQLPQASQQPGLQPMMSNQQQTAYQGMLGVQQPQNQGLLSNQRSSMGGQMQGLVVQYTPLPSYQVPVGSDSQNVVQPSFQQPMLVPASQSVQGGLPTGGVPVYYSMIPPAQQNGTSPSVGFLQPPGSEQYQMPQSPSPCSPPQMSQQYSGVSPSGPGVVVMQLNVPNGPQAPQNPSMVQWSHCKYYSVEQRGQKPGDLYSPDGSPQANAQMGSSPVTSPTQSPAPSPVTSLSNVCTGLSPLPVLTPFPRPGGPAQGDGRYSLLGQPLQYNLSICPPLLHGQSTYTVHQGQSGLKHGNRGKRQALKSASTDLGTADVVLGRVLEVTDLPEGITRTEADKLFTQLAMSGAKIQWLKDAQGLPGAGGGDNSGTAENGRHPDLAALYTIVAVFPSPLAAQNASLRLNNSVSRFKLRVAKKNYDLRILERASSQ
UniProt Q7TSH4: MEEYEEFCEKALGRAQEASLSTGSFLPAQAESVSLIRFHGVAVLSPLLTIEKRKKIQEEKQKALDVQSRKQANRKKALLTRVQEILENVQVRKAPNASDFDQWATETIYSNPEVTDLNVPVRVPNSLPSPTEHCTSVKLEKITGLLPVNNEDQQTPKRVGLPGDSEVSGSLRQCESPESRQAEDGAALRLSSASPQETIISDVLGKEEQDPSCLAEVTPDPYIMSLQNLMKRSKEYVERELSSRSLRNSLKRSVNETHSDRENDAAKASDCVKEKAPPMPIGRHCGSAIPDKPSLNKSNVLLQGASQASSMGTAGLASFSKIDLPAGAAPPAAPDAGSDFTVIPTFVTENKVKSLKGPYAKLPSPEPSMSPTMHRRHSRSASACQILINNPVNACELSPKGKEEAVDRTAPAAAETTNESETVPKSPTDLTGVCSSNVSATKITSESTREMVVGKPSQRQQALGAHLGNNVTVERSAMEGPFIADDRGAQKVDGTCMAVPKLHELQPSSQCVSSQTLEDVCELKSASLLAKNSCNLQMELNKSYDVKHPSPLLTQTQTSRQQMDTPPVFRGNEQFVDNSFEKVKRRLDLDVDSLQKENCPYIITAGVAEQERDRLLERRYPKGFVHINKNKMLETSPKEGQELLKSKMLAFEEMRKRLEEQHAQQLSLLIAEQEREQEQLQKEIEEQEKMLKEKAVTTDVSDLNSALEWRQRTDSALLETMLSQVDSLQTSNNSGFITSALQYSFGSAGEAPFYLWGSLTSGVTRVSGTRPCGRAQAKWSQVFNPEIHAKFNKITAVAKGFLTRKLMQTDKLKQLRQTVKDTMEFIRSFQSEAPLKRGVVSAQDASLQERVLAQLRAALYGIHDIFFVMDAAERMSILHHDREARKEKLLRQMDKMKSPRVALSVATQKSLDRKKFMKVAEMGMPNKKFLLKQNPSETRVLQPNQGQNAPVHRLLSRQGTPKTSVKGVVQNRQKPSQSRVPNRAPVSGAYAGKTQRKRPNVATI
UniProt Q80UF7: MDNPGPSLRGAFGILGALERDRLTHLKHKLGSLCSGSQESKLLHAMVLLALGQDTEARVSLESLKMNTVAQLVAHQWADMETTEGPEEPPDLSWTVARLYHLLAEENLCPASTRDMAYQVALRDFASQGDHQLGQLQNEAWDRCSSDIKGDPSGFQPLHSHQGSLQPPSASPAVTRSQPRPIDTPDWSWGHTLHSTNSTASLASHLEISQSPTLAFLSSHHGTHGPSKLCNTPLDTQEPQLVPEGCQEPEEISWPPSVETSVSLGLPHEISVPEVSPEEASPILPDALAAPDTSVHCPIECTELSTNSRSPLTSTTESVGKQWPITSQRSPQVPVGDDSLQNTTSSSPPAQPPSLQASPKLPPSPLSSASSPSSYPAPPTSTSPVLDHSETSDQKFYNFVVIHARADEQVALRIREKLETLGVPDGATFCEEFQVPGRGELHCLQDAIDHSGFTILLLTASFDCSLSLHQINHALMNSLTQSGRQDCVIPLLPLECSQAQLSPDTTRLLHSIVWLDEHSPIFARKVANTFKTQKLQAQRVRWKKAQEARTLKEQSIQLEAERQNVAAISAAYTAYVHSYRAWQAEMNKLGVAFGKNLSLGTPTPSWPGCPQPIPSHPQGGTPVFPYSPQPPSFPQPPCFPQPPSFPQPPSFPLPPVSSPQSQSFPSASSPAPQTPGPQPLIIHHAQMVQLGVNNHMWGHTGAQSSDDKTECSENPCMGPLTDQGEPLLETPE
UniProt Q6Y7W8: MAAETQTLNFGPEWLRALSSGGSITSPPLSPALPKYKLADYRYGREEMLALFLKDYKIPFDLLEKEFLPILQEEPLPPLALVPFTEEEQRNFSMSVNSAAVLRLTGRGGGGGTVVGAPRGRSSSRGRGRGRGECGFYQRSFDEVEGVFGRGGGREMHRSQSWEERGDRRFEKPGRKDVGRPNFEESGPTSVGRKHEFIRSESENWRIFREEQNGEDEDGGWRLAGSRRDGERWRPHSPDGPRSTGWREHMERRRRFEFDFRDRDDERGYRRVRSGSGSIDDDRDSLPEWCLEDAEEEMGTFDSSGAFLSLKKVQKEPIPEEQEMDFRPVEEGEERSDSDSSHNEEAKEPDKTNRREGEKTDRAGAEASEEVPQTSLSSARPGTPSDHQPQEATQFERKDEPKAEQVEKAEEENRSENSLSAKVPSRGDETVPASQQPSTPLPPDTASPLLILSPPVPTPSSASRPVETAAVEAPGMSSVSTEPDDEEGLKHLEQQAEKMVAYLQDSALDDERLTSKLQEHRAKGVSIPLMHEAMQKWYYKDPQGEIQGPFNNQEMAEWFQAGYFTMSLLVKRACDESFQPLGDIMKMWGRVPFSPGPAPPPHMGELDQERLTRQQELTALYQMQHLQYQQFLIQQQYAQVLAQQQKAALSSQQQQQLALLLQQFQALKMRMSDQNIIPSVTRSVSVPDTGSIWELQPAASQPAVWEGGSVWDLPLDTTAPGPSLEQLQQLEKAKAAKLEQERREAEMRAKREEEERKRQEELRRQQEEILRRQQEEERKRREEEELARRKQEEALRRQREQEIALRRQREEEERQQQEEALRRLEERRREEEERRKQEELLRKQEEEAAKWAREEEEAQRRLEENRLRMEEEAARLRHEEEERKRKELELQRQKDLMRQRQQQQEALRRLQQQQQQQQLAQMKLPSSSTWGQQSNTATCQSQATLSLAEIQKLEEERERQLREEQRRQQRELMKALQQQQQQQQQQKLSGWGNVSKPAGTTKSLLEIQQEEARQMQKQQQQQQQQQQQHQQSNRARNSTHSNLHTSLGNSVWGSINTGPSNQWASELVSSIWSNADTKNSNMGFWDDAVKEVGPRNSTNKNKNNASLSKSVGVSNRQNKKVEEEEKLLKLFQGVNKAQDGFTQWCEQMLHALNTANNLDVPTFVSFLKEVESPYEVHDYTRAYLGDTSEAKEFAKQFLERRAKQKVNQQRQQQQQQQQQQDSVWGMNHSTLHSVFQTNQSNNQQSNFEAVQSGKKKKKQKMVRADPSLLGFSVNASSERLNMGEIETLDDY
UniProt Q80TQ5: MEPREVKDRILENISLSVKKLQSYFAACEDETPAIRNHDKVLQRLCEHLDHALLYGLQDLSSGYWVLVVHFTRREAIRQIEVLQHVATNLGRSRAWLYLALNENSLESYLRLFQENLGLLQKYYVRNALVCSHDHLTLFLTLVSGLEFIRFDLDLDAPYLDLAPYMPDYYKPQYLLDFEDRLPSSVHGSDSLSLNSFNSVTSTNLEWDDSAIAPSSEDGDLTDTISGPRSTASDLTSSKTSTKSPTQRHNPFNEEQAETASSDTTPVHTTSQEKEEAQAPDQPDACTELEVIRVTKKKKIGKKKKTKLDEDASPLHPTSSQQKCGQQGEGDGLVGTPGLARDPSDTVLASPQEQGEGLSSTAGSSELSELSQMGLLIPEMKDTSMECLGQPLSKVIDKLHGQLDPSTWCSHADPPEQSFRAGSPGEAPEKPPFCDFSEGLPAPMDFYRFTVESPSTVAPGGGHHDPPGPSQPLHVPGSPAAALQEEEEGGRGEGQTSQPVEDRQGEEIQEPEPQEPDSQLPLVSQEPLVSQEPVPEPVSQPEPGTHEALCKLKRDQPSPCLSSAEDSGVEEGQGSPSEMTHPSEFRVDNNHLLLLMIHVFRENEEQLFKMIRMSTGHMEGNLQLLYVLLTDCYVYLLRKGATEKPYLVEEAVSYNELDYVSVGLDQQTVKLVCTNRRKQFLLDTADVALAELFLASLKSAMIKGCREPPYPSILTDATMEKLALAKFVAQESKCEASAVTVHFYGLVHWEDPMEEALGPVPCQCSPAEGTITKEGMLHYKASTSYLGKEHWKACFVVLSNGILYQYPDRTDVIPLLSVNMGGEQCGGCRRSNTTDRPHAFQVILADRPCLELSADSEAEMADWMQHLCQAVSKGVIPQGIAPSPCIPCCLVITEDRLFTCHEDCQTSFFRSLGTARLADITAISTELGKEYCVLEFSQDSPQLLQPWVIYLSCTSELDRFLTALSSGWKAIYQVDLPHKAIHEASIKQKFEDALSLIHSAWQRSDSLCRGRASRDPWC
UniProt Q7TSI3: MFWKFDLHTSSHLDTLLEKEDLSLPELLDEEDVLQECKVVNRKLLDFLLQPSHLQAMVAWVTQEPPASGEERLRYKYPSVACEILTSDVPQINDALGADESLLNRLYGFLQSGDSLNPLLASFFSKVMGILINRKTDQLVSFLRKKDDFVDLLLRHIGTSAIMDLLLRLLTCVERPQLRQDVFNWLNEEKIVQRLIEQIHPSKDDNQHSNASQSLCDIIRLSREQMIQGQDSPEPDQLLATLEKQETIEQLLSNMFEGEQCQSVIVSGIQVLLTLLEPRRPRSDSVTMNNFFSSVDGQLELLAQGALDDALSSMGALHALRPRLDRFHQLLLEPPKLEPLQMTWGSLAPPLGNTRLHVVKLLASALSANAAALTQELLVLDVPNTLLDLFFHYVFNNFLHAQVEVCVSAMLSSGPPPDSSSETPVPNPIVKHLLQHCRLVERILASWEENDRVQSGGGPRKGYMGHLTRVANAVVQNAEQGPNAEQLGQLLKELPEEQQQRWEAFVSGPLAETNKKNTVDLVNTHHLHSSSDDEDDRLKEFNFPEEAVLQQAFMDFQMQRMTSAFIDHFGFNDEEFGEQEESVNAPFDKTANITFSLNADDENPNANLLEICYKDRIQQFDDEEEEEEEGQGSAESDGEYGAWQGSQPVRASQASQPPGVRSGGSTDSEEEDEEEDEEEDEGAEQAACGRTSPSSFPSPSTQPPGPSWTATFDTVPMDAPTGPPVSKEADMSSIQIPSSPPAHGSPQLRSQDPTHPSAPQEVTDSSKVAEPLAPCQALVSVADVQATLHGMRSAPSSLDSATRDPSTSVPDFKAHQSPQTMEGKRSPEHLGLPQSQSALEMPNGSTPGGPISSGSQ
UniProt Q78T54: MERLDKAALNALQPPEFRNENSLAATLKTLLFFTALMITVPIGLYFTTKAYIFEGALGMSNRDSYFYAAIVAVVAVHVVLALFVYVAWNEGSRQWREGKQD

Compound in this experiment: CN[C@@H]1C[C@H]2O[C@@](C)([C@@H]1OC)n1c3ccccc3c3c4c(c5c6ccccc6n2c5c31)C(=O)NC4 [staurosporine]
In words: log2 fold change of tryptic peptide abundance, ligand vs vehicle (limited proteolysis) (log2 ratio); higher = more trypsin-susceptible (destabilized). Conditions: ligand concentration: 20 uM; sample: mouse liver crude lysate; replicate design: treated separately.
With “UniProt Q76I79 (peptide sequence: LDHTSNFSK, peptide start residue: 897)”, the log2 fold change amounted to 0.413.

Consider “UniProt Q80U70 (peptide sequence: NSESLHQENKPGSVKPAQTIAVK, peptide start residue: 383)”, for which the log2 fold change worked out at 0.307.

Regarding “UniProt Q80TH2 (peptide sequence: LKDEETNEESGR, peptide start residue: 505)”, the log2 fold change was -0.287.

For “UniProt Q80V86 (peptide sequence: TIVQSSFPVK, peptide start residue: 153)”, the log2 fold change turned out to be 0.466.

As to “UniProt Q80TN5 (peptide sequence: LKADKEFR, peptide start residue: 295)”, the log2 fold change worked out at 0.0304.

“UniProt Q80UM3 (peptide sequence: ILEEFRK, peptide start residue: 170)”: the log2 fold change worked out at 0.259.

Consider “UniProt Q7TMQ7 (peptide sequence: LFALQAEIHR, peptide start residue: 199)”, for which the log2 fold change amounted to 0.504.

Take “UniProt Q7TPE5 (peptide sequence: LMWSKYPLDVQK, peptide start residue: 282)”: the log2 fold change was found to be 0.288.

For “UniProt Q80TM6 (peptide sequence: DDASMDRDDNQMR, peptide start residue: 260)”, the log2 fold change amounted to 0.464.

For the target “UniProt Q6ZWV7 (peptide sequence: YKPLDLR, peptide start residue: 78)”, the log2 fold change came to 0.141.

On to “UniProt Q7TMB3 (peptide sequence: LKPLKPCLSVK, peptide start residue: 55)”, for which the log2 fold change is 0.567.

For “UniProt Q80UV9 (peptide sequence: TVIHNDNEELIKVEGTK, peptide start residue: 1327)”, the log2 fold change worked out at 0.444.

For “UniProt Q75N62 (peptide sequence: SAFFSQLR, peptide start residue: 499)”, the log2 fold change is -0.356.

Take “UniProt Q7TSH4 (peptide sequence: HCGSAIPDKPSLNK, peptide start residue: 284)”: the log2 fold change was determined as 0.375.

For the target “UniProt Q78T81 (peptide sequence: LSGYSTEHSR, peptide start residue: 240)”, the log2 fold change was -0.199.

Take “UniProt Q6ZQ08 (peptide sequence: CPVVLAPLLYPEKR, peptide start residue: 219)”: the log2 fold change was -0.738.

As for “UniProt Q80UF7 (peptide sequence: AWQAEMNK, peptide start residue: 581)”, the log2 fold change was determined as 0.303.

Turning to “UniProt Q80TQ2 (peptide sequence: IYGYVCATK, peptide start residue: 646)”, the log2 fold change is -0.689.

On to “UniProt Q6Y7W8 (peptide sequence: AEQVEKAEEENRSENSLSAK, peptide start residue: 403)”, for which the log2 fold change turned out to be 0.307.

Consider “UniProt Q71KT5 (peptide sequence: KNPSDPSVAGLETIPTATGR, peptide start residue: 316)”, for which the log2 fold change came to 0.232.

On to “UniProt Q7TT16 (peptide sequence: LLGGCVPLSHQVAGHMYGK, peptide start residue: 25)”, for which the log2 fold change was 0.407.

In the case of “UniProt Q7TMM8 (peptide sequence: HDCKDFEALLADTGRLPNLK, peptide start residue: 50)”, the log2 fold change is -0.278.

Turning to “UniProt Q80SU7 (peptide sequence: SQIMNSLLSK, peptide start residue: 1072)”, the log2 fold change is 0.365.

As for “UniProt Q80TR8 (peptide sequence: GLGETATVLTR, peptide start residue: 861)”, the log2 fold change stood at 0.308.

On to “UniProt Q80TQ5 (peptide sequence: LDEDASPLHPTSSQQK, peptide start residue: 308)”, for which the log2 fold change came to 0.578.

Regarding “UniProt Q80V94 (peptide sequence: SSSSVLSDYLSCHCQK, peptide start residue: 1102)”, the log2 fold change worked out at 0.523.

In the case of “UniProt Q7TSI3 (peptide sequence: VMGILINR, peptide start residue: 127)”, the log2 fold change stood at 0.527.

On to “UniProt Q78T54 (peptide sequence: AALNALQPPEFR, peptide start residue: 7)”, for which the log2 fold change amounted to 0.14.

Take “UniProt Q6ZPS6 (peptide sequence: AHDWDREK, peptide start residue: 262)”: the log2 fold change worked out at 0.513.
